Reference: paper PMC6355022
No constants are given. Whether binding was seen depends on the method and setting. For some assays here: In cells and extracts the contact can be indirect. Some results given as binding are weak or reduced against the parent protein; the word gives no strength. For some assays here: Where a sequence is shown, tags or fusion partners need not be part of it. Blank lines part the entries; values can stand above or below the binder they belong to.

Assays:
[1] = target: T1, GST-AtSIZ1 fusion protein (Arabidopsis thaliana) (UniProt Q680Q4); experiment: pull-down; GST or GST-AtSIZ1 from cell lysates immobilised on GST Agarose, washed with 1xPBS, incubated with lysate of E. coli expressing His6-LBD30; immunoblot with anti-His; only the target purified
T1 sequence: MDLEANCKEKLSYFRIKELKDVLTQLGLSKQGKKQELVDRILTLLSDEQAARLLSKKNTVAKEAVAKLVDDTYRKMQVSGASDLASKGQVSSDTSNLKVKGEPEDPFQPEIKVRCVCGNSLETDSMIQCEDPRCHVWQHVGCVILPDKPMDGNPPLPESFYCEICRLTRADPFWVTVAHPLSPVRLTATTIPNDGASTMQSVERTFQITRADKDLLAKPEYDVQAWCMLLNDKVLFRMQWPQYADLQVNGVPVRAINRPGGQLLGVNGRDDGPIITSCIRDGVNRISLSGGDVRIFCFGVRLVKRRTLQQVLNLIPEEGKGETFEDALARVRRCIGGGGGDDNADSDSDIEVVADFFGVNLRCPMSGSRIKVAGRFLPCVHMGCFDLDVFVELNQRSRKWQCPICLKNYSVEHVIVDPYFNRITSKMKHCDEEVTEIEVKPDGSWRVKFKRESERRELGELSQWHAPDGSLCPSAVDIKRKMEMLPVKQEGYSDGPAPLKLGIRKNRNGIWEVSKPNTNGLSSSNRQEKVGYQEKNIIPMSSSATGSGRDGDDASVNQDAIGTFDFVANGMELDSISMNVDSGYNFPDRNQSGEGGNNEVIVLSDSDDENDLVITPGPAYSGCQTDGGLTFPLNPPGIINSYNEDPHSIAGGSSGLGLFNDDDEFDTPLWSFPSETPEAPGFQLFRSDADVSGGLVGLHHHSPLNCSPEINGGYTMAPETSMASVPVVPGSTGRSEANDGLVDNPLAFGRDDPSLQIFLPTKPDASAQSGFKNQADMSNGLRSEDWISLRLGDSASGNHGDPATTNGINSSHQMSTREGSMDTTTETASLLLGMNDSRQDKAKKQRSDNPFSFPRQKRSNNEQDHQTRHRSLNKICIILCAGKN

[2] = target: T2, YN-AtSIZ1 (Arabidopsis thaliana) (UniProt Q680Q4); experiment: split reporter; BiFC with split YFP in N. benthamiana leaf cells, examined 48 h after infiltration; confocal microscopy, DAPI for nuclei
T2 sequence: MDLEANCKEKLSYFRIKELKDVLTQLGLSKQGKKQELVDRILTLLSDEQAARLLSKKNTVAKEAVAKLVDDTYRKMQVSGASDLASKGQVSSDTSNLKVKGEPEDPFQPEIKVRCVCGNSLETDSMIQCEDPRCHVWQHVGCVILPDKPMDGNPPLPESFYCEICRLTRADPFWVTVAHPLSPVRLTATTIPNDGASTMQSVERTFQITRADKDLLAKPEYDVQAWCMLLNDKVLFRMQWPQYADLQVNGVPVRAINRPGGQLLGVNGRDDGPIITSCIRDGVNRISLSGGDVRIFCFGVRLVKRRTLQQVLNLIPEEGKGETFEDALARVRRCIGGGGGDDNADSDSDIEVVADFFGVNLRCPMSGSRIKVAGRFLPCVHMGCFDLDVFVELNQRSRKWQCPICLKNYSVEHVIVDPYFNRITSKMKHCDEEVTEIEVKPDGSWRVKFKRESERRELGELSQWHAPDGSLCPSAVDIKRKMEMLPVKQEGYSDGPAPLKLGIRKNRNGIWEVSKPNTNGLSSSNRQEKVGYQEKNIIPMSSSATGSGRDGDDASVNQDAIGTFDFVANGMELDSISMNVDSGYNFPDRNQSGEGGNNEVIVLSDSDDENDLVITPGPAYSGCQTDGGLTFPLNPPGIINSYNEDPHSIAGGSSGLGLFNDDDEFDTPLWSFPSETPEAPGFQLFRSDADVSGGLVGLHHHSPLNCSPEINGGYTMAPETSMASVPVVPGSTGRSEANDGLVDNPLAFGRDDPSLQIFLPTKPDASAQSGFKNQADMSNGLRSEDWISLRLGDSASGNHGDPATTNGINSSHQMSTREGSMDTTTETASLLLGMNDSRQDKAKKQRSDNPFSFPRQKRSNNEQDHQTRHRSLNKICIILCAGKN

[3] = target: T3, MYC-AtSIZ1 (Arabidopsis thaliana) (UniProt Q680Q4); experiment: co-IP; Myc-AtSIZ1 and LBD30-HA co-expressed in tobacco leaves; extract in 50 mM Tris-HCl pH 7.5, 150 mM NaCl, 1 mM EDTA, 0.2% Triton X-100; IP with anti-Myc agarose or anti-HA matrix, 3 h at 4°C; immunoblot with anti-HA or anti-Myc
T3 sequence: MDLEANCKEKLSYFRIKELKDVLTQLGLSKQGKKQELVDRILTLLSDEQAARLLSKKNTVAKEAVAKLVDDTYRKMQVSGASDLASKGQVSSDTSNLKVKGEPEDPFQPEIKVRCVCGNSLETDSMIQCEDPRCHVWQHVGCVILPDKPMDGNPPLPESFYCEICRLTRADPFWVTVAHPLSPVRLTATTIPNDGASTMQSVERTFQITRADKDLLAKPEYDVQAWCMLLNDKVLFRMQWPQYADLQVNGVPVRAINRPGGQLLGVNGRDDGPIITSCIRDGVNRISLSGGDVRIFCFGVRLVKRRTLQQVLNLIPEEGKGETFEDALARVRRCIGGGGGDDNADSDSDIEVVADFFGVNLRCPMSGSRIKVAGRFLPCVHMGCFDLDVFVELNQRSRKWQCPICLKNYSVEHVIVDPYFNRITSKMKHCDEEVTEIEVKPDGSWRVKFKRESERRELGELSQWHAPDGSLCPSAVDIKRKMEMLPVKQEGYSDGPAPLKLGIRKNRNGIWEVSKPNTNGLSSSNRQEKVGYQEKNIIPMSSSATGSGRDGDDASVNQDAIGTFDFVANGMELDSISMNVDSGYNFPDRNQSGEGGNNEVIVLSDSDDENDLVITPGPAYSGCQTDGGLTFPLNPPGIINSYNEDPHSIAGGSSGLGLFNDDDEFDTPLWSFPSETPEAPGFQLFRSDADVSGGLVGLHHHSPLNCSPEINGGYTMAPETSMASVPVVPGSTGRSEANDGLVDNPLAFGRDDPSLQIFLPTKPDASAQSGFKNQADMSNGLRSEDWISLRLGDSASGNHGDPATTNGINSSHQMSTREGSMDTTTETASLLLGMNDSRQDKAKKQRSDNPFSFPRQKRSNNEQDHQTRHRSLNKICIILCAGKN

[4] = target: T4, LBD30 fused to the Gal4 DNA-binding domain (Arabidopsis thaliana) (UniProt O81323); experiment: two-hybrid; directed test: AtSIZ1 in pGADT7 (Gal4 AD) and LBD30 or its derivates in pGBKT7 (Gal4 BD), AH109 yeast cells
T4 sequence: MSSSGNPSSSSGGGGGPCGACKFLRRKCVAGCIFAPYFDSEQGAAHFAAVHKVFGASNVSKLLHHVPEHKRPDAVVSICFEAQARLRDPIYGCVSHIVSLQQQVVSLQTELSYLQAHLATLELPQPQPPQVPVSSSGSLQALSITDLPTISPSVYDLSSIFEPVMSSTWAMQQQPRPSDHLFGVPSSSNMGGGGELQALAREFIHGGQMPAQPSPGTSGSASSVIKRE

[5] = target: T5, LBD30-C (amino acids 121-228) fused to the Gal4 DNA-binding domain (Arabidopsis thaliana) (UniProt O81323); experiment: as above
T5 sequence: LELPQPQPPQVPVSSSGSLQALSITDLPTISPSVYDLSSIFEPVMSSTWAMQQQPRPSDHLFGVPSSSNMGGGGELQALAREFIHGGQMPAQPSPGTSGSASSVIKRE

binding [1]: binds
B1: His6-LBD30 fusion protein (protein, UniProt O81323 1-228)
chain: MSSSGNPSSSSGGGGGPCGACKFLRRKCVAGCIFAPYFDSEQGAAHFAAVHKVFGASNVSKLLHHVPEHKRPDAVVSICFEAQARLRDPIYGCVSHIVSLQQQVVSLQTELSYLQAHLATLELPQPQPPQVPVSSSGSLQALSITDLPTISPSVYDLSSIFEPVMSSTWAMQQQPRPSDHLFGVPSSSNMGGGGELQALAREFIHGGQMPAQPSPGTSGSASSVIKRE

binding [2]: binds
B2: LBD30-YC (protein, UniProt O81323 1-228)
chain: MSSSGNPSSSSGGGGGPCGACKFLRRKCVAGCIFAPYFDSEQGAAHFAAVHKVFGASNVSKLLHHVPEHKRPDAVVSICFEAQARLRDPIYGCVSHIVSLQQQVVSLQTELSYLQAHLATLELPQPQPPQVPVSSSGSLQALSITDLPTISPSVYDLSSIFEPVMSSTWAMQQQPRPSDHLFGVPSSSNMGGGGELQALAREFIHGGQMPAQPSPGTSGSASSVIKRE

binding [3]: binds
B3: LBD30-HA (protein, UniProt O81323 1-228)
chain: MSSSGNPSSSSGGGGGPCGACKFLRRKCVAGCIFAPYFDSEQGAAHFAAVHKVFGASNVSKLLHHVPEHKRPDAVVSICFEAQARLRDPIYGCVSHIVSLQQQVVSLQTELSYLQAHLATLELPQPQPPQVPVSSSGSLQALSITDLPTISPSVYDLSSIFEPVMSSTWAMQQQPRPSDHLFGVPSSSNMGGGGELQALAREFIHGGQMPAQPSPGTSGSASSVIKRE

binding [4]: binds
binding [5]: binds
B4: AtSIZ1 fused to the Gal4 activation domain (enzyme, UniProt Q680Q4 1-884)
chain: MDLEANCKEKLSYFRIKELKDVLTQLGLSKQGKKQELVDRILTLLSDEQAARLLSKKNTVAKEAVAKLVDDTYRKMQVSGASDLASKGQVSSDTSNLKVKGEPEDPFQPEIKVRCVCGNSLETDSMIQCEDPRCHVWQHVGCVILPDKPMDGNPPLPESFYCEICRLTRADPFWVTVAHPLSPVRLTATTIPNDGASTMQSVERTFQITRADKDLLAKPEYDVQAWCMLLNDKVLFRMQWPQYADLQVNGVPVRAINRPGGQLLGVNGRDDGPIITSCIRDGVNRISLSGGDVRIFCFGVRLVKRRTLQQVLNLIPEEGKGETFEDALARVRRCIGGGGGDDNADSDSDIEVVADFFGVNLRCPMSGSRIKVAGRFLPCVHMGCFDLDVFVELNQRSRKWQCPICLKNYSVEHVIVDPYFNRITSKMKHCDEEVTEIEVKPDGSWRVKFKRESERRELGELSQWHAPDGSLCPSAVDIKRKMEMLPVKQEGYSDGPAPLKLGIRKNRNGIWEVSKPNTNGLSSSNRQEKVGYQEKNIIPMSSSATGSGRDGDDASVNQDAIGTFDFVANGMELDSISMNVDSGYNFPDRNQSGEGGNNEVIVLSDSDDENDLVITPGPAYSGCQTDGGLTFPLNPPGIINSYNEDPHSIAGGSSGLGLFNDDDEFDTPLWSFPSETPEAPGFQLFRSDADVSGGLVGLHHHSPLNCSPEINGGYTMAPETSMASVPVVPGSTGRSEANDGLVDNPLAFGRDDPSLQIFLPTKPDASAQSGFKNQADMSNGLRSEDWISLRLGDSASGNHGDPATTNGINSSHQMSTREGSMDTTTETASLLLGMNDSRQDKAKKQRSDNPFSFPRQKRSNNEQDHQTRHRSLNKICIILCAGKN
